# Results as given in PubChem BioAssay AID540276 (National Center for Advancing Translational Sciences (NCATS), 2011).
# Several values for one entry are separate records, joined by “and”; a condition that tells them apart may be missing. Equal entries are not always repeated. The campaign covered roughly 300,000 compounds. About 5,400 (1.8%) were called active. This list was built around the results that the source calls inconclusive (neither active nor inactive); the mix of calls is not that of the screen. The call rests on the fitted dose curve; tested in HEK293 cells. Where the call is inconclusive, the potency comes from a doubtful curve fit.
# Assay: qHTS for inhibitors of binding or entry into cells for Marburg Virus
# Conditions: Marburg virus pseudotyped entry inhibition, cell reporter; series mostly up to 37.8 µM
# Potency means the concentration at half of the fitted maximal effect.
row,SMILES,Potency
1,COC(=O)/C(=C/c1ccc2c(c1)c1ccccc1n2C)NC(=O)c1ccccc1,"inconclusive: 6.31 µM [inhibitor, partial curve, poor fit]"
2,Cc1cc(/C=C(\C#N)C(=O)Nc2ccc(Cl)cc2)c(C)n1-c1ccc(N2CCOCC2)c([N+](=O)[O-])c1,inactive
3,O=C(c1cc2ccccc2o1)N1CCN(S(=O)(=O)/C=C/c2ccccc2)CC1,"inconclusive: 3.55 µM [inhibitor, single point]"
4,COc1ccc(-c2cn(-c3ccccc3)c3[n+]2CCS3)cc1,"inconclusive: 14.6 µM [inhibitor, partial curve] and inconclusive: 29.1 µM [inhibitor, single point]"
5,COc1ccc(NC(=O)CSC2CC(=O)N(c3ccc4c(c3)OCCO4)C2=O)cc1 (centres undefined),inactive
6,CCOc1ccc(C(=O)NCCn2cc(SCC(=O)NCCc3ccc(OC)c(OC)c3)c3ccccc32)cc1,"inconclusive: 11.2 µM [inhibitor, partial curve, poor fit]"
7,CCN(CC)CCNC(=O)c1cc(Sc2nnc(C)s2)nc2ccccc12,"inconclusive: 1 µM [inhibitor, full curve]"
8,Cc1cccc(C(=O)NNC2=C(C(=O)C(F)(F)F)CCC2)c1O,"inconclusive: 35.5 µM [inhibitor, single point]"
9,COc1ccc(/C=C/C(=O)Nc2ccccc2C)cc1S(=O)(=O)N1CCOCC1,inactive
10,Cn1c(=O)c2c(nc(SCCN3CCCCC3)n2Cc2ccc(Cl)cc2)n(C)c1=O,"inconclusive: 11.2 µM [inhibitor, single point]"
11,COCCCn1c(SCC(=O)NC2CCCCC2)nnc1-c1ccncc1,"inconclusive: 3.66 µM [activator, single point]"
12,Cn1c(SCC(=O)N2CCCC2)nc2cccnc21,inactive
13,CCOc1ccc(C(=O)N/N=C(\c2ccccc2)c2ccccn2)cc1,"inconclusive: 7.08 µM [inhibitor, partial curve, poor fit]"
14,O=C(CC1N=C2c3ccccc3N=C(SCc3ccccc3Cl)N2C1=O)NCc1ccco1 (centres undefined),"inconclusive: 35.5 µM [inhibitor, single point]"
15,Cc1ccccc1NC(=O)CSc1nnc(-c2ccccc2)n1-c1ccccc1,"inconclusive: 0.112 µM [inhibitor, full curve, poor fit]"
16,Cn1nnnc1SCCCNCc1cccc(OCc2ccc(Cl)cc2)c1,"inconclusive: 35.5 µM [inhibitor, single point]"
17,C=C(C(C)=O)C(O)c1ccc([N+](=O)[O-])cc1 (centres undefined),"inconclusive: 5.96 µM [inhibitor, single point]"
18,Cc1oc2c(CN3CCCC3)c(O)ccc2c(=O)c1-c1ccc(Cl)cc1,inactive
19,CN(C)/C=C/C(=O)c1ccc(Br)s1,inactive
20,CCOc1ccc(NC(=O)Nc2nnc(CC(=O)NCc3ccccc3)s2)cc1,"inconclusive: 17.8 µM [inhibitor, single point]"
21,CCCCCn1c(CN2CCN(c3cccc(Cl)c3)CC2)nc2c1c(=O)[nH]c(=O)n2C,inactive
22,COc1cc(/C=C/c2cc(C(F)(F)F)[nH]c(=O)n2)cc(OC)c1OC,"inconclusive: 20 µM [inhibitor, single point]"

row,SMILES,Potency
1,CCOCCCNC(=S)N1CCCN(c2nc3cc(C)cc(C)c3cc2C#N)CC1,"inconclusive: 35.5 µM [inhibitor, single point]"
2,COc1cc(C2NC(=S)NC(C)=C2C(=O)Nc2ccc(C)cc2)ccc1O (centres undefined),"inconclusive: 8.91 µM [activator, partial curve, poor fit]"
3,O=C(Nc1ccc(F)cc1)[C@H](Cc1ccccc1)N1Cc2ccccc2C1=O,inactive
4,O=C(O)C1C2C=CC(C2)C1C(=O)NCc1ccccc1F (centres undefined),inactive
5,COc1cccc(-c2nc(-c3ccc(-c4ccccc4)nc3OC)no2)c1,inactive
6,O=C(/C=C/c1ccc(OCCCF)cc1)Nc1ccnc(-c2cccnc2)n1,"inconclusive: 3.55 µM [inhibitor, full curve]"
7,COc1ccccc1C(=O)Nc1ccc(-c2nnn(CC(=O)N3CCOCC3)n2)cc1,"inconclusive: 11.2 µM [activator, single point]"
8,CC(C)CNC(=O)CSc1ccc(Cl)cc1,inactive
9,O=C(NC(CC1=CCCCC1)c1ccc2c(c1)OCO2)C(F)(F)F (centres undefined),"inconclusive: 6.68 µM [activator, single point]"
10,Cc1ccc(C(=O)Nc2ccc(Cl)c(-c3nc4ncccc4o3)c2)c(C)c1,inactive
11,Cc1ccccc1OCc1ccc(-c2nc(C#N)c(NCCCN(C)C)o2)o1,"inconclusive: 7.94 µM [inhibitor, partial curve, poor fit]"
12,CN(C)c1ccc(CNc2nc(-c3ccco3)nn2S(=O)(=O)c2ccc3ccccc3c2)cc1,inactive
13,COc1ccc(C(=O)n2cc(C(=O)c3cc(C)ccc3O)cn2)cc1,"inconclusive: 20.6 µM [activator, partial curve, poor fit]"
14,CC(=O)Nc1ccc(NC(=O)c2ccc(NS(=O)(=O)c3cccc4cccnc34)cc2)cc1,"inconclusive: 3.55 µM [activator, single point]"
15,O=C(N/N=C/c1ccccn1)c1ccc(Cl)cc1,"inconclusive: 35.5 µM [inhibitor, single point]"
16,COc1ccc(O[C@H]2C=C[C@@H](c3ccccc3)O[C@@H]2CO/N=C2/[C@H]3CCn4c(=O)n(-c5ccccc5)c(=O)n4[C@H]3[C@H](O)[C@@H]3O[C@H]23)cc1,inactive
17,COc1ccc(NC(=O)Cn2cnc3sc(C)c(S(=O)(=O)N4CCN(C)CC4)c3c2=O)cc1OC,"inconclusive: 20 µM [activator, single point]"
18,CCOc1ccc(CNC(=O)c2cc3oc4ccccc4c3n2C)cc1,active: 3.98 µM
19,Cc1ccc(OCc2ccc(C(=O)NCc3cccnc3)cc2)cc1C,active: 8.91 µM
20,Cc1ccccc1-n1c(Cn2c(=O)sc3ccccc32)nnc1SCC(N)=O,inactive
21,O=C(NC1CCCC1)C(c1ccccn1)N(C(=O)c1csnn1)c1ccccc1F (centres undefined),inactive
22,COc1ccccc1CNc1ccc(-c2nc(C(C)C)no2)cc1[N+](=O)[O-],"inconclusive: 8.91 µM [inhibitor, partial curve]"

# Rewritten bar-delimited: 3 of the compounds above
row | SMILES | Potency
14 | CC(=O)Nc1ccc(NC(=O)c2ccc(NS(=O)(=O)c3cccc4cccnc34)cc2)cc1 | inconclusive: 3.55 µM [activator, single point]
15 | O=C(N/N=C/c1ccccn1)c1ccc(Cl)cc1 | inconclusive: 35.5 µM [inhibitor, single point]
16 | COc1ccc(O[C@H]2C=C[C@@H](c3ccccc3)O[C@@H]2CO/N=C2/[C@H]3CCn4c(=O)n(-c5ccccc5)c(=O)n4[C@H]3[C@H](O)[C@@H]3O[C@H]23)cc1 | inactive
